# Among all 330,000 compounds or so, about 7,700 (2.3%) were called active. Inconclusive means that the source gave no clear call. Such entries were picked first, then a sample of the others. The call rests on the fitted dose curve; in most records, active means well fitted inhibition curve with a large enough effect; inconclusive means small, poorly fitted or top-dose-only effect, or effect the other way; inactive means flat fitted curve, though single readings scatter. Potencies beside an inconclusive call are fits to weak or partial responses and may not hold up.
# Assay: qHTS screen for small molecules that inhibit ELG1-dependent DNA repair in human embryonic kidney (HEK293T) cells expressing luciferase-tagged ELG1; further: nearly all actives have a fitted effect of over 55% in size
# Conditions: HEK293T ELG1-luciferase reporter, luminescence, 16 h, DNA damage induced by 5-fluorouridine; series mostly up to 46.1 µM
# Outline: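 Quantitative HTS, concentration-response format. 2,000 cells/well co-treated with 5-fluorouridine and compound, 16 hr in 5% CO2 at 37 °C; ONE-Glo luminescence read after 30 min.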
# Potency means the concentration at half of the fitted maximal effect.
row,SMILES,Potency
1,CCOc1cc(C(=O)NC2CC(C)(C)NC(C)(C)C2)cc(OCC)c1OCC,"inconclusive: 29.1 µM [inhibitor, single point]"
2,N/C(=N\OC(=O)COc1ccc(Cl)cc1Cl)c1ccncc1,"inconclusive: 4.61 µM [activator, partial curve]"
3,CCCc1cc(-c2nc(-c3ccc(C)cc3)cs2)ccn1,"inconclusive: 14.6 µM [activator, partial curve, poor fit]"
4,CC(C)C(=O)Nc1ccc(-c2csc(-c3ccccc3)n2)cc1,"inconclusive: 9.2 µM [activator, partial curve]"
5,COc1cc(C(c2sc3nc(C)nn3c2O)N2CCc3ccccc3C2)cc(OC)c1OC (configuration not stated),inactive
6,Cc1ccc(C(=O)N2CCN(c3ccc([N+](=O)[O-])c(NCc4cccnc4)c3)CC2)cc1,"inconclusive: 23.1 µM [inhibitor, partial curve]"
7,Cc1ccc(N2CC(C(=O)Nc3nccs3)CC2=O)cc1Cl (configuration not stated),"inconclusive: 29.1 µM [inhibitor, single point]"
8,Cc1oc(=O)c(NC(=O)c2ccccc2)cc1C(=O)c1ccccc1,"inconclusive: 14.6 µM [activator, partial curve]"
9,COc1ccc(C2=Nn3c(nnc3-c3ccccc3F)SC2)cc1OC1CCOC1 (configuration not stated),inactive
10,CCCCOCCCNC(=O)Cc1cccs1,"inconclusive: 1.26 µM [inhibitor, single point]"
11,CCn1c2ccccc2c2nnc(NN)nc21,"inconclusive: 25.9 µM [inhibitor, single point]"
12,CC(=O)Nc1ccc(C(=O)NC2CCCC2)cc1,inactive
13,CN(C)C(=O)CCCc1nc(-c2ccc(Cl)cc2)no1,"inconclusive: 8.2 µM [activator, partial curve]"
14,COc1ccc(-n2c(Cc3cccn3C)nnc2SCC(=O)NCCc2ccccc2)cc1,inactive
15,COc1ccc(C(=O)NN2C(=S)N(c3ccc(OC)cc3)C(=O)C2CC(N)=O)cc1 (configuration not stated),"inconclusive: 23.1 µM [activator, single point]"
16,O=C(c1cccc(Br)c1)c1cn(-c2ccccc2)nc1C(=O)c1ccccc1,"inconclusive: 20.6 µM [inhibitor, single point]"
17,CCCn1nnc(NC(=S)NC(=O)c2ccccc2OC)n1,inactive
18,O=C(CSCC(=O)Nc1nc(-c2ccc3c(c2)OCO3)cs1)Nc1nccs1,inactive
19,COc1cccc(NC(=O)CN(C)C(=O)Cc2cccc3ccccc23)c1,inactive
20,Cc1ccc(NC(=O)C2=CCN(S(=O)(=O)c3ccc(F)cc3)CC2)cc1,"inconclusive: 29.1 µM [inhibitor, single point]"
21,Nc1nc(NCCO)nc(NCC2CCCO2)c1[N+](=O)[O-] (configuration not stated),inactive
22,Cc1ccc2c(c1)CCCN2CC(=O)N(C)c1c(N)n(Cc2ccccc2)c(=O)[nH]c1=O,inactive
23,O=C(Nc1ccc(O)cc1)C1CCCO1 (configuration not stated),"inconclusive: 23.1 µM [activator, partial curve, poor fit]"
24,CCOc1cccc(NC(=O)c2cnccc2C(F)(F)F)c1,inactive

row,SMILES,Potency
1,CC(Oc1cc(C(F)(F)F)cc(C(F)(F)F)c1)C(=O)NC(N)=O (configuration not stated),"inconclusive: 29.1 µM [inhibitor, single point]"
2,CCOCCCNC(=O)c1cc2c(=O)n3ccccc3nc2s1,"inconclusive: 16.4 µM [activator, partial curve]"
3,O=C(NC(C(=O)c1ccccc1)N1CCOCC1)c1ccccc1 (configuration not stated),"inconclusive: 25.9 µM [activator, single point]"
4,COc1cc(C(=O)NC2CCN(Cc3ccccc3)CC2)cc(Cl)c1OC,inactive
5,Cc1ccc(C)c(N2CCN(C(=O)c3ccc(CS(=O)Cc4ccc(Cl)cc4)o3)CC2)c1 (configuration not stated),active: 14.6 µM
6,S=C(NCc1ccco1)Nc1ccccn1,"inconclusive: 29.1 µM [inhibitor, single point]"
7,CC(C#N)(NC(=O)CN1CCN(S(=O)(=O)c2ccc(Br)cc2Cl)CC1)C1CC1 (configuration not stated),inactive
8,Cc1ccccc1C(=O)N1CCN(c2ccc(NC(=O)c3cccnc3Cl)cc2)CC1,"inconclusive: 16.4 µM [inhibitor, partial curve]"
9,O=C(NCc1ccccn1)c1ccc(N2CCCC2=O)cc1,"inconclusive: 11.6 µM [activator, partial curve]"
10,Cc1ccc(S(=O)(=O)N(C)CCCC(=O)Nc2ccncc2)cc1,active: 5.8 µM
11,O=C(NNCC(O)COc1ccccc1)c1ccccc1 (configuration not stated),inactive
12,Cc1nnc2ccc(-c3ccc(NS(=O)(=O)c4ccccc4F)cc3)nn12,"inconclusive: 16.4 µM [activator, partial curve]"
13,O=C1CC(c2ccco2)CC2=C1C(c1ccccc1)n1nc(C(F)(F)F)nc1N2 (configuration not stated),"inconclusive: 29.1 µM [inhibitor, single point]"
14,COCCC(=O)N1CCC(Oc2ccc(C(=O)NCCCC3CCCC3)cc2)CC1,inactive
15,N/C(=N\OC(=O)c1ccccc1F)c1ccc([N+](=O)[O-])cc1,"inconclusive: 8.2 µM [activator, partial curve]"
16,CC1CCCCN1C(=O)CSc1nnc(-c2cccs2)o1 (configuration not stated),"inconclusive: 10.3 µM [activator, partial curve]"
17,CC1(C)C(=O)Nc2ccccc2N1C(=O)CSc1nc(-c2ccccc2)cs1,"inconclusive: 0.0146 µM [inhibitor, full curve, poor fit]"
18,COc1ccc(C(=O)CC(Nc2ccc([N+](=O)[O-])cc2)c2ccc(OC)cc2)cc1 (configuration not stated),inactive
19,CCOC(=O)N1CCC(N2Cc3cccc(C(=O)NC(C)c4ccc5c(c4)OCCO5)c3C2=O)CC1 (configuration not stated),"inconclusive: 18.4 µM [inhibitor, partial curve]"
20,C/C(N)=C(/C#N)C(=O)CSc1nnc(-c2ccc3c(c2)OCO3)o1,"inconclusive: 0.517 µM [activator, full curve]"
21,O=C(CSc1nnc2n(C3CCCC3)c(=O)c3ccccc3n12)N1CCCCCC1,"inconclusive: 11.6 µM [inhibitor, partial curve]"
22,Cc1nn(Cc2ccccc2Cl)c(C)c1NC(=O)c1nc2ncccn2n1,inactive
23,O=C(CCc1nnc(Cc2cccc(C(F)(F)F)c2)o1)NC1CC1,"inconclusive: 16.4 µM [activator, partial curve, poor fit]"

# Quoted from above, 4 compounds:
row,SMILES,Potency
5,Cc1ccc(C)c(N2CCN(C(=O)c3ccc(CS(=O)Cc4ccc(Cl)cc4)o3)CC2)c1 (configuration not stated),active: 14.6 µM
6,S=C(NCc1ccco1)Nc1ccccn1,"inconclusive: 29.1 µM [inhibitor, single point]"
7,CC(C#N)(NC(=O)CN1CCN(S(=O)(=O)c2ccc(Br)cc2Cl)CC1)C1CC1 (configuration not stated),inactive
8,Cc1ccccc1C(=O)N1CCN(c2ccc(NC(=O)c3cccnc3Cl)cc2)CC1,"inconclusive: 16.4 µM [inhibitor, partial curve]"

# Reference: PubChem BioAssay AID504467 (National Center for Advancing Translational Sciences (NCATS), 2011)
